According to patent US20090233850A1:

Assays:
[1] = target: HIV-1 CM235 gp120 (circulating recombinant CRF01-AE) (HIV-1 CM235); assay: ELISA, 100 ng gp120 adsorbed on the plate, 50 nM L5, detection with polyclonal anti-CVN, BSA background subtracted
[2] = target: HIV-1 92UG21-9 gp120 (Clade A) (HIV-1 92UG21-9); assay: as above
[3] = target: HIV-1 93MW959 gp120 (Clade C) (HIV-1 93MW959); assay: as above
[4] = target: AN1 gp120 (ancestral clade B HIV envelope) (HIV-1 (ancestral clade B)); assay: as above
[5] = target: SIV PBj2-8 envelope glycoprotein (SIV PBj2-8); assay: ELISA, 100 ng envelope glycoprotein adsorbed on the plate, 50 nM L5, detection with polyclonal anti-CVN, BSA background subtracted
[6] = target: HIV-1 CM235 gp120 (circulating recombinant CRF01-AE) (HIV-1 CM235); assay: ELISA, 100 ng adsorbed gp120, 50 nM binder, polyclonal anti-CVN detection
[7] = target: HIV-1 92UG21-9 gp120 (Clade A) (HIV-1 92UG21-9); assay: as above
[8] = target: HIV-1 93MW959 gp120 (Clade C) (HIV-1 93MW959); assay: as above
[9] = target: AN1 gp120 (ancestral clade B HIV envelope) (HIV-1 (ancestral clade B)); assay: as above
[10] = target: SIV PBj2-8 envelope glycoprotein (SIV PBj2-8); assay: as above

Measured: binding

B1: L5 chimera (CVN-12p1): CVN, linker of five Gly4Ser repeats, 12p1, C-terminal hexa-histidine tag (protein)
chain: LGKFSQTCYNSAIQGSVLTSTCERTNGGYNTSSIDLNSVIENVDGSLKWQPSNFIETCRNTQLAGSSELAAECKTRAQQFVSTKINLDDHIANIDGTLKYEGSGGGGSGGGGSGGGGSGGGGSGGGGSRINNIPWSEAMMHHHHHH
binds: all assays above

These are yes or no findings as the source states them, for the method shown. Binding can be weak; no strength is given. Sequences can lack the tags named with a protein.
